Whole data set: some 33,000 sequences, median “E-score (-0.5 to 0.5)” near -0.016, cut for the highest 2% near 0.3. The list shows a part of the results.
Target: T1, Yer184c (UniProt P39961)
T1 sequence: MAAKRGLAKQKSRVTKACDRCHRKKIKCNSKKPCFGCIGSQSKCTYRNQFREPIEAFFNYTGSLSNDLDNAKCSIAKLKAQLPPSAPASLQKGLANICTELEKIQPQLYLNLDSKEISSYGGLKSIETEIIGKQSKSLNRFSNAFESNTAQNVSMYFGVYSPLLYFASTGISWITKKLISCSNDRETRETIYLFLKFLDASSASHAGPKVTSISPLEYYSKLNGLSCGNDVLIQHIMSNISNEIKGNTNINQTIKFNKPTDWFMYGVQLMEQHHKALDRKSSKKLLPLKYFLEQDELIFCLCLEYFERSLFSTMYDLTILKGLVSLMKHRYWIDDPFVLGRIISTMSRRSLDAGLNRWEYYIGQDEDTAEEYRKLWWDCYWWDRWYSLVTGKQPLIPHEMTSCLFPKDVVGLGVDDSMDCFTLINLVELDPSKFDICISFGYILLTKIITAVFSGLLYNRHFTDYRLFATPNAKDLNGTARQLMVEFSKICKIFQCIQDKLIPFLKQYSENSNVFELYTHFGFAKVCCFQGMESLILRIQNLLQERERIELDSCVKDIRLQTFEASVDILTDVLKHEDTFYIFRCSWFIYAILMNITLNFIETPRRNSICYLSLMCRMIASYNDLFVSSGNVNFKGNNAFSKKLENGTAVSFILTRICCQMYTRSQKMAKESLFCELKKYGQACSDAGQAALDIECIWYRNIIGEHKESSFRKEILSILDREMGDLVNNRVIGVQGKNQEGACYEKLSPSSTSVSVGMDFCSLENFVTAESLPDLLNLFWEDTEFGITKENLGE
Assay: PBM E-score (8-mer binding enrichment) (E-score (-0.5 to 0.5)); higher = stronger / more preferred TF binding
Conditions: protein concentration: 100 nM; construct: GST-full length
How it was run: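 Universal all-10-mer Agilent arrays, double-stranded by primer extension on fresh or once-stripped slides, were probed with about 100-200 nM GST-tagged yeast transcription factors made by PURExpress. Fluorescent anti-GST detected bound protein, and masliner normalised the scans. E-scores from the Universal PBM Analysis Suite were given to each ungapped eight-base word pooled with its reverse complement.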

Compared with ATATCAGC, GGGCAATA is higher in “PBM E-score” value: -0.163 for the first, -0.0856 for the second.

Compared with TGAATGAA, CGACTTTA is higher in “PBM E-score” value: 0.0647 for the first, 0.0976 for the second.

First: AAAGACGG
Second: AACGTGTA
The “PBM E-score” value of the first is higher: 0.11 for the first, -0.102 for the second.

Compared with ACGGAACT, CTGTAATC is lower in “PBM E-score” value: 0.197 for the first, -0.0408 for the second.

Compared with AGAGATCA, ATCGAAAT is higher in “PBM E-score” value: -0.125 for the first, -0.0691 for the second.

First: CAAGTTCG
Second: ATCGACTA
The “PBM E-score” value of the first is higher: -0.0965 for the first, -0.0998 for the second.

Going from TATCAGCA to CAAGATGA, the “PBM E-score” value falls from 0.0986 to -0.182.

Compared with ACCCAAGG, TAACGGGA is higher in “PBM E-score” value: -0.162 for the first, 0.0886 for the second.

Compared with CAAGATAA, ATATGTAA is higher in “PBM E-score” value: 0.068 for the first, 0.104 for the second.

First: ATAATGGG
Second: CGGACGAC
The “PBM E-score” value of the first is lower: 0.00169 for the first, 0.23 for the second.

Going from ACTCCGTA to AGACCAGC, the “PBM E-score” value falls from -0.0281 to -0.256.

Compared with CTTATCGC, TGGCACCA is lower in “PBM E-score” value: -0.00943 for the first, -0.25 for the second.

First: GACCGCAC
Second: ACGGTTCC
The “PBM E-score” value of the first is lower: -0.146 for the first, 0.127 for the second.

Compared with GCAGTCCA, ATTGTGGG is lower in “PBM E-score” value: -0.103 for the first, -0.173 for the second.

Going from AGCGCGAT to GCTCCGAC, the “PBM E-score” value falls from -0.00195 to -0.0639.

First: ATCTGGGC
Second: ATTCTGCA
The “PBM E-score” value of the first is lower: -0.18 for the first, 0.124 for the second.

First: AGACGTTC
Second: ATGCGCCA
The “PBM E-score” value of the first is higher: 0.0147 for the first, -0.156 for the second.

Compared with ACCTAAAG, GTCAAGAC is lower in “PBM E-score” value: 0.084 for the first, -0.127 for the second.

Compared with CCAAACCG, AGGGAGAA is lower in “PBM E-score” value: 0.136 for the first, -0.0924 for the second.

Compared with CAACCAAA, AACTCTAC is lower in “PBM E-score” value: -0.00617 for the first, -0.121 for the second.

First: ACAAGTAG
Second: CATTGCTA
The “PBM E-score” value of the first is lower: -0.201 for the first, 0.057 for the second.

Going from CCTCTTAA to CCACTACA, the “PBM E-score” value falls from 0.0803 to -0.155.

Compared with AGTAAGCC, AAGGTCTG is higher in “PBM E-score” value: -0.207 for the first, -0.0795 for the second.

First: ATTTCGCA
Second: CCAATTCG
The “PBM E-score” value of the first is higher: 0.24 for the first, -0.0621 for the second.

Compared with AGATAAGC, CGTAAGTA is higher in “PBM E-score” value: -0.051 for the first, 0.0901 for the second.

Going from CCCAAAGG to CTCACATC, the “PBM E-score” value rises from -0.158 to -0.123.

First: GAGCTACA
Second: CATATATA
The “PBM E-score” value of the first is lower: -0.129 for the first, 0.28 for the second.

Compared with AGGGACCC, ACGATCGG is higher in “PBM E-score” value: -0.319 for the first, 0.0369 for the second.

First: CCTGAGAC
Second: CGCCGTTC
The “PBM E-score” value of the first is lower: -0.242 for the first, 0.164 for the second.

Compared with TCCTTTCA, AGTAAAGC is lower in “PBM E-score” value: 0.0974 for the first, 0.0937 for the second.

Going from AACCGCCG to AACAGGAC, the “PBM E-score” value falls from 0.223 to -0.0566.

First: AGACAATG
Second: GTGCAATA
The “PBM E-score” value of the first is higher: -0.0462 for the first, -0.0961 for the second.

Going from AAATGCGC to GACCCATA, the “PBM E-score” value falls from 0.162 to -0.0721.

Compared with GATAATGA, AACCGTTA is lower in “PBM E-score” value: 0.077 for the first, 0.0014 for the second.

Going from AGGTGTCC to AAGAAAGT, the “PBM E-score” value rises from -0.0169 to 0.148.

Compared with GGTCATCA, ACTCACGC is higher in “PBM E-score” value: -0.19 for the first, -0.0772 for the second.

Going from ACTCTATA to CATCGTAA, the “PBM E-score” value rises from -0.0712 to 0.0806.

Going from ACATCACA to GCGTCAGA, the “PBM E-score” value falls from -0.056 to -0.23.

Going from GCCGATTA to AACTACTA, the “PBM E-score” value falls from 0.274 to 0.112.

Going from ATTGCCCC to CCAGGCCC, the “PBM E-score” value rises from -0.24 to -0.138.

Compared with CCTACTAC, TCAATCGA is higher in “PBM E-score” value: -0.0717 for the first, 0.0483 for the second.

Going from ATCCCAAA to CAGAGTGG, the “PBM E-score” value falls from -0.015 to -0.205.

Compared with AGAAACAG, GATTACCA is higher in “PBM E-score” value: -0.0454 for the first, 0.0238 for the second.

Source: the supplement of paper PMC3334620
